At least one structure is not confirmed: it was looked up by name or label, or the drawing left a doubt.
Key:
Assay type in all cases: cell-based
Settings in all cases: dose range, 24 hours
HUT78 human TCL cells [1] = assay: Dose-dependent effects on CD137L protein surface expression (flow cytometry)
Description: HUT78 cells, cultured in 6-well plates in RPMI-1640 medium containing 20% fetal bovine serum (FBS), were treated with a dose range of Romidepsin (0-0.1 μM), Bortezomib (0-1.0 μM), Belinostat (0-1.0 μM), Chidamide (0-3.0 μM), or Vincristine (0-0.03 μM) for 24 hours. Cells (1×10^5) were washed twice in Dulbecco's Phosphate Buffered Saline (DPBS), stained with either Phycoerythrin (PE)-conjugated Isotype Control (Biolegend catalog #400112) and anti-human-CD137L (Biolegend catalog #311504) antibodies (1 μL antibody in 100 μL DPBS, FIG. 5A-5E) or PE-Cy7-conjugated Isotype Control (Thermofisher catalog #25-4714-80) and anti-human-CD137L (Thermofisher catalog #25-5906-42) antibodies (1 μL antibody in 100 μL DPBS, FIG. 5F-5H) at 4° C. for 30 minutes, washed twice in DPBS, and resuspended in 100 μL DPBS for flow cytometry analysis.

HUT78 human TCL cells [2] = assay: Cell viability of HUT78 cells (CellTiter-Glo)
Description: (§1) HUT78 cells, cultured in 96-well plates in RPMI-1640 medium containing 20% fetal bovine serum (FBS), were treated with a dose range of Romidepsin (0-0.1 μM), Bortezomib (0-1.0 μM), or Chidamide (0-3.0 μM) for 24 hours. The CellTiter-Glo assay (Promega) was used to assess cell viability according to the manufacturer's instructions.

purified human T cells = assay: Cell viability of purified human T cells (CellTiter-Glo)
Description: as §1, with “T cells were purified from human PBMCs (>95% purity, data not shown),” for “HUT78 cells,”, “10%” for “20%”, “and” for “were”

SMILES: Nc1cc(F)ccc1NC(=O)c1ccc(CNC(=O)/C=C/c2cccnc2)cc1 [Chidamide, chidamide]
- CD137L protein surface expression (HUT78 human TCL cells [1]): dose-dependent upregulation
- cell viability of HUT78 human TCL cells (HUT78 human TCL cells [2]): not
- viability of purified human T cells (purified human T cells): minimal or no effect
